Measured values reported in publication PMC5997682.
Results are given in words; binding and its absence hold for the method and conditions named. In cells and extracts the contact can be indirect. Some results given as binding are weak or reduced against the parent protein; the word gives no strength. For some assays here: Sequences can lack the tags named with a protein.

By UniProt entry, the sequences of proteins in these tests, tags left out.
UniProt Q05397: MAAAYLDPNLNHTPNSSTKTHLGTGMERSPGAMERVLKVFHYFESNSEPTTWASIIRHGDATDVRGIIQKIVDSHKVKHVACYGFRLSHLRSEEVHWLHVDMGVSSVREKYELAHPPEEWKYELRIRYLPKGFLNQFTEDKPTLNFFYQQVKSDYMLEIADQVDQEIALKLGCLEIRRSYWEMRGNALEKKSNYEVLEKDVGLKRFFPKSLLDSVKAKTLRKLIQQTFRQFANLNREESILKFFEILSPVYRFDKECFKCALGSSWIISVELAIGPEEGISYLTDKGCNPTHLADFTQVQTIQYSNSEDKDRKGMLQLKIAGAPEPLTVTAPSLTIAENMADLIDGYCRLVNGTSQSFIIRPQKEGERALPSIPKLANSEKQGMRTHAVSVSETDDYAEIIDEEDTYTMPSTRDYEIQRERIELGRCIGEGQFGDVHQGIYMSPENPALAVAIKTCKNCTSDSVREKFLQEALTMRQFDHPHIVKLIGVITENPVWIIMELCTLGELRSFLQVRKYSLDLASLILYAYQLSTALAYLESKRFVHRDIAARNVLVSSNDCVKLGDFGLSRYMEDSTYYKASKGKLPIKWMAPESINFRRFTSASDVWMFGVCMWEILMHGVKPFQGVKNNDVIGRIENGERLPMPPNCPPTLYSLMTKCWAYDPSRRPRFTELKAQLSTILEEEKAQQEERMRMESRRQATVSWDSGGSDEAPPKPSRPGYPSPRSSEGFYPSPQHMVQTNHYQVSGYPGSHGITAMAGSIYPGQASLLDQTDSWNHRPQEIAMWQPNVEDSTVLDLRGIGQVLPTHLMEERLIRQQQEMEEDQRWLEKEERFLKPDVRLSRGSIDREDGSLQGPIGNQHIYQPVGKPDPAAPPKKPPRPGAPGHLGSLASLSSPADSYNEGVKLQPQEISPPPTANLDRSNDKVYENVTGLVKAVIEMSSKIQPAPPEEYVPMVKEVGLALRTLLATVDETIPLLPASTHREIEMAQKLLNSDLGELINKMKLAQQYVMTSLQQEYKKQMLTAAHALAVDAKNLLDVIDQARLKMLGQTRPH

Tests used:
[1] = biological target: focal adhesion kinase (FAK), endogenous in HBMECs (human (endogenous in HBMECs)) (UniProt Q05397); assay: co-IP
GST-OmpA (E. coli) = biological target: T1, GST-OmpA (E. coli) (UniProt P0A910); assay: pull-down; GST fusion proteins prebound to Glutathione Sepharose 4B, incubated overnight at 4 °C with HBMECs lysate; binding buffer 20 mM Tris, 50 mM NaCl, 10% glycerol, 1% Nonidet P-40; blot with Caspr1 antibody; only the target purified
T1 sequence: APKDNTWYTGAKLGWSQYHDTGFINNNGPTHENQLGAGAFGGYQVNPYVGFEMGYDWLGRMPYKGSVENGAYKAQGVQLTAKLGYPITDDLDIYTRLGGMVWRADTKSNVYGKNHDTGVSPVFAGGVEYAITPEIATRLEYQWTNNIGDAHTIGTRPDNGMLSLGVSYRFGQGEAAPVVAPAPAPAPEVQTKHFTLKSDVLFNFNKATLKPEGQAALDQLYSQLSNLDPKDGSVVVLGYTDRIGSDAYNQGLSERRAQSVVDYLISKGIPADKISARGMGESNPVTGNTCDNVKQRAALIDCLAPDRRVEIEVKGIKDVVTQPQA

B1: endogenous Caspr1 in HBMECs (receptor, UniProt P78357 20-1384)
chain: WGYYGCDEELVGPLYARSLGASSYYSLLTAPRFARLHGISGWSPRIGDPNPWLQIDLMKKHRIRAVATQGSFNSWDWVTRYMLLYGDRVDSWTPFYQRGHNSTFFGNVNESAVVRHDLHFHFTARYIRIVPLAWNPRGKIGLRLGLYGCPYKADILYFDGDDAISYRFPRGVSRSLWDVFAFSFKTEEKDGLLLHAEGAQGDYVTLELEGAHLLLHMSLGSSPIQPRPGHTTVSAGGVLNDQHWHYVRVDRFGRDVNFTLDGYVQRFILNGDFERLNLDTEMFIGGLVGAARKNLAYRHNFRGCIENVIFNRVNIADLAVRRHSRITFEGKVAFRCLDPVPHPINFGGPHNFVQVPGFPRRGRLAVSFRFRTWDLTGLLLFSRLGDGLGHVELTLSEGQVNVSIAQSGRKKLQFAAGYRLNDGFWHEVNFVAQENHAVISIDDVEGAEVRVSYPLLIRTGTSYFFGGCPKPASRWDCHSNQTAFHGCMELLKVDGQLVNLTLVEGRRLGFYAEVLFDTCGITDRCSPNMCEHDGRCYQSWDDFICYCELTGYKGETCHTPLYKESCEAYRLSGKTSGNFTIDPDGSGPLKPFVVYCDIRENRAWTVVRHDRLWTTRVTGSSMERPFLGAIQYWNASWEEVSALANASQHCEQWIEFSCYNSRLLNTAGGYPYSFWIGRNEEQHFYWGGSQPGIQRCACGLDRSCVDPALYCNCDADQPQWRTDKGLLTFVDHLPVTQVVIGDTNRSTSEAQFFLRPLRCYGDRNSWNTISFHTGAALRFPPIRANHSLDVSFYFRTSAPSGVFLENMGGPYCQWRRPYVRVELNTSRDVVFAFDVGNGDENLTVHSDDFEFNDDEWHLVRAEINVKQARLRVDHRPWVLRPMPLQTYIWMEYDQPLYVGSAELKRRPFVGCLRAMRLNGVTLNLEGRANASEGTSPNCTGHCAHPRLPCFHGGRCVERYSYYTCDCDLTAFDGPYCNHDIGGFFEPGTWMRYNLQSALRSAAREFSHMLSRPVPGYEPGYIPGYDTPGYVPGYHGPGYRLPDYPRPGRPVPGYRGPVYNVTGEEVSFSFSTSSAPAVLLYVSSFVRDYMAVLIKDDGTLQLRYQLGTSPYVYQLTTRPVTDGQPHSINITRVYRNLFIQVDYFPLTEQKFSLLVDSQLDSPKALYLGRVMETGVIDPEIQRYNTPGFSGCLSGVRFNNVAPLKTHFRTPRPMTAELAEALRVQGELSESNCGAMPRLVSEVPPELDPWYLPPDFPYYHDEGWVAILLGFLVAFLLLGLVGMLVLFYLQNHRYKGSYHTNEPKAAHEYHPGSKPPLPTSGPAQVPTPTAAPNQAPASAPAPAPTPAPAPGPRDQNLPQILEESRSE
binding [1]: binds | binding (GST-OmpA (E. coli)): no binding
